Results are given in words; binding and its absence hold for the method and conditions named. Some results given as binding are weak or reduced against the parent protein; the word gives no strength.
Biological target: Aha1-FAM (FAM-labelled Aha1 used with the human Hsp90β variants) (UniProt O95433)
Experiment: AUC; 0.5 µM Aha1-FAM with 3 µM human Hsp90β variant, no nucleotide, 40 mM Hepes pH 7.5, 20 mM KCl, 5 mM MgCl2, 2 mM DTT, 42,000 rpm, 20 °C, fluorescence detection, dc/dt plots; both purified

Amino acid sequences for entries named in this document (tags omitted). A change or cut given only in a name is not applied to a line headed by its entry.
UniProt O95433: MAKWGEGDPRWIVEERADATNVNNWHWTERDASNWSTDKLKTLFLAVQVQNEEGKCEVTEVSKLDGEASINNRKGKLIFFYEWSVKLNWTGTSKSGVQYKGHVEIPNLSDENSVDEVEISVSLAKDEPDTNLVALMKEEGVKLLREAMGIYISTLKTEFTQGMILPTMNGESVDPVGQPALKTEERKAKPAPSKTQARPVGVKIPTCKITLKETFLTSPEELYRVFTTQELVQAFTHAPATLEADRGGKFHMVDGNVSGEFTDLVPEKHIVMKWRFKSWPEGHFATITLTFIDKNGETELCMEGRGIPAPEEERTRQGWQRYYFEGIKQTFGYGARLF

binding, binds:
human Hsp90β K607A (from UniProt P08238 1-724)
human Hsp90β K607E (from UniProt P08238 1-724)
human Hsp90β K607I (from UniProt P08238 1-724)
human Hsp90β K607R (from UniProt P08238 1-724)
human Hsp90β, wild type (from UniProt P08238 1-724)

Reference: paper PMC7057950
